“And” between values parts separate entries of the source, which are not always exact repeats. Identical values can stand only once. Inconclusive results, whose numbers are uncertain, are shown with a selection of clear calls. Where the call is inconclusive, the potency comes from a doubtful curve fit. The source made the active and inactive calls. The calls were made as follows: active = hit-call score of the fitted dose curve at least 0.9, where 1 is the maximum; inconclusive = response in the unintended direction; inactive = score below 0.9.
molecular target: human Androgen Receptor (AR), AR (gene 367) (UniProt P10275); assay: ATG_hAR_XSP2: Attagene TRANS-FACTORIAL Multi-Species (XSP2) HepG2 Assay for human Androgen Receptor (AR) (AID 2283820)
Description: ATG_XSP2_multi-species_TRANS is a cell-based, multiplexed assay created by modifying the existing Attagene TRANS-FACTORIAL system to include a panel of nuclear receptors from some or all the following species: human (Homo sapiens), mouse (Mus musculus), frog (Xenopus laevis), zebrafish (Danio rerio), chicken (Gallus gallus), and turtle (Chrysemys picta). The ECOTOX-FACTORIAL format uses HepG2, a human liver cell line, with measurements taken at 24 hours after chemical dosing in a 24-well plate. Xsp2 included 3 nM 6-alpha-fluorotestosterone and 1.5 nM norgestrel to stimulate the androgen receptor.ATG_hAR_XSP2 is one of 29 assay components measured or calculated from the ATG_XSP2_multi-species_TRANS assay. It is designed to make measurements of mRNA induction, a form of inducible reporter, as detected with fluorescence intensity signals by Reverse transcription polymerase chain reaction (RT-PCR) and Capillary electrophoresis technology.The assay endpoint ATG_hAR_XSP2 was analyzed in the positive analysis fitting direction relative to DMSO as the negative control and baseline of activity. Using a type of inducible reporter, measures of mRNA for gain-of-signal activity can be used to understand the reporter gene at the transcription factor-level as they relate to the gene AR. Furthermore, this assay endpoint can be referred to as a primary readout, because this assay has produced multiple assay endpoints where this one serves a reporter gene function. To generalize the intended target to other relatable targets, this assay endpoint is annotated to the nuclear receptor intended target family, where the subfamily is steroidal.
Human liver HepG2 cells are transiently transfected with multiple reporter transcription units (MRTUs) in 6-well plates using FuGene 6 reagent (Roche; 3 ml FuGene/1 mg DNA). The MRTU constructs are regulated by a cis-regulating element (promoter). […] A major difference between the CIS and TRANS system is that in CIS activities of endogenous TFs are measured, whereas the TRANS assay evaluates changes in activities of exogenous, chimeric NR-Gal4 proteins. […] At the end of 24 hour incubation, total RNA was isolated using TriZol reagent (Invitrogen). The isolated RNA is then reverse-transcribed using oligo(dT) primer and Mo-MLV reverse transcriptase (Invitrogen) with DNAse I (Ambion) treatment for 30 min. The one-tenth of the produced cDNA was amplified by PCR using Taq DNA polymerase (Invitrogen) and two reporter sequence-specific primers. The PCR products were fluorescently labeled by primer extension with 6-arboxyfluorescein (6-FAM) 5'-labeled reporter sequence-specific primer (2 min at 95 C, 20 s at 68 C and 10 min at 72 C) and these products were digested with 5U of HpaI (New England Biolabs) for 2h at 37 C. The fragments were purified using Qiaquick PCR columns (Qiagen), analyzed on an ABI 3130xL genetic analyzer (Applied Biosystems) with peak positions identified by using a set of X-rhodamine (ROX)-labeled MapMarker1000 molecular weight standards (BioVentures). The raw capillary electrophoresis data was processed using Attagraph software (Attagene).

Chains of the proteins cited; added tags and fusions are not shown. Lines headed by an entry give the natural chain unless they say otherwise; changes in a name come on top.
UniProt P10275: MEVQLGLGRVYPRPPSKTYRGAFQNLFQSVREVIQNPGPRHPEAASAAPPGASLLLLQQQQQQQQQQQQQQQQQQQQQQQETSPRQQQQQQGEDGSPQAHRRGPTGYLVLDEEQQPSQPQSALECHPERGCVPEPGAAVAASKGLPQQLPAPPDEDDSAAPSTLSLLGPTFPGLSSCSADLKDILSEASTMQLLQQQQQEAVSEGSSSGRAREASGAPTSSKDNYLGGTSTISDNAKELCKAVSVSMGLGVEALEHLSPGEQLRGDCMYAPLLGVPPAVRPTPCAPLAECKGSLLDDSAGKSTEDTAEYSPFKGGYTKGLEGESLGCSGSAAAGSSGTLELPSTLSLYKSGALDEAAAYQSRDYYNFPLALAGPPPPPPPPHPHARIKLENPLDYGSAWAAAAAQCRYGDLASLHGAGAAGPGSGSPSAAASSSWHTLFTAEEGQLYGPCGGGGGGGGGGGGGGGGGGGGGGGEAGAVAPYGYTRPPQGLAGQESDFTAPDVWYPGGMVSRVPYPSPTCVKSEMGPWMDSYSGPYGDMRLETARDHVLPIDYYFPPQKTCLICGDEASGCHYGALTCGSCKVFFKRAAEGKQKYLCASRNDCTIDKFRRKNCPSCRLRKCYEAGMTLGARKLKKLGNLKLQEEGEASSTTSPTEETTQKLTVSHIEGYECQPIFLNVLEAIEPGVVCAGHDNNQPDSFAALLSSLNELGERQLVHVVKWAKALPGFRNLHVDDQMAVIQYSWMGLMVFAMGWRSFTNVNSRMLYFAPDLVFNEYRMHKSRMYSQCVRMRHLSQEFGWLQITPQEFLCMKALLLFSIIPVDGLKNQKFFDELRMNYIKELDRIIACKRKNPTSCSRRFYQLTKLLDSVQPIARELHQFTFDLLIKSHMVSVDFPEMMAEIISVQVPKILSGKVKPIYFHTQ

| Compound | AC50 | outcome |
| --- | --- | --- |
| CCCN(CCC)c1c([N+](=O)[O-])cc(C(F)(F)F)cc1[N+](=O)[O-] | inconclusive: 45.2 µM |  |
| CCC(=O)O[C@H]1CC[C@H]2[C@@H]3CCC4=CC(=O)CC[C@]4(C)[C@H]3CC[C@]12C | inconclusive: 0.177 µM | inactive |
| COc1ccc(C(=CC(=O)N2CCOCC2)c2ccc(Cl)cc2)cc1OC | inconclusive: 2.37 µM and inconclusive: 1.3 µM |  |
| CC1(C)CCC(=Cc2ccc(Cl)cc2)C1(O)Cn1cncn1 (centres undefined) | inconclusive: 1.56 µM |  |
| C[C@]12C=CC3=C4CCC(=O)C=C4CC[C@H]3[C@@H]1CC[C@@H]2O | active: 0.00407 µM |  |
| CC(C)Oc1cc(-n2nc(C(C)(C)C)oc2=O)c(Cl)cc1Cl | inconclusive: 0.483 µM |  |
| C[C@H]1CCCC(=O)CCC/C=C/c2cc(O)cc(O)c2C(=O)O1 | inconclusive: 0.1 µM |  |
| COP(=O)(OC)O/C(=C\Cl)c1cc(Cl)c(Cl)cc1Cl | inconclusive: 0.31 µM |  |
| O=C1C2(Cl)C3(Cl)C4(Cl)C(Cl)(Cl)C5(Cl)C3(Cl)C1(Cl)C5(Cl)C24Cl (centres undefined) | inconclusive: 10 µM |  |
| CC12CC1(C)C(=O)N(c1cc(Cl)cc(Cl)c1)C2=O (centres undefined) | inconclusive: 384 nM and inconclusive: 827 nM |  |
| O=S1OCC2C(CO1)C1(Cl)C(Cl)=C(Cl)C2(Cl)C1(Cl)Cl (centres undefined) | inconclusive: 8.05 µM |  |
| Oc1ccc(Cl)cc1Cc1ccccc1 | inconclusive: 3.59 µM |  |
| COCCl | inconclusive: 35 µM and inconclusive: 34.8 µM |  |
| Oc1c(I)cc(I)cc1I | inconclusive: 26.4 µM and inconclusive: 27.4 µM |  |
| Nc1c(Cl)cc([N+](=O)[O-])cc1Cl | inconclusive: 3.34 µM and inconclusive: 4.64 µM |  |
| CO/C=C(/C(=O)OC)c1ccccc1Oc1cc(Oc2ccccc2C#N)ncn1 | inconclusive: 1 µM |  |
| COP(=S)(OC)SCn1nnc2ccccc2c1=O | inconclusive: 48.2 µM and inconclusive: 7.8 µM |  |
| [Cl][Sn]([c]1ccccc1)([c]1ccccc1)[c]1ccccc1 | inconclusive: 0.323 µM |  |

Reference: PubChem BioAssay (EPA / NIEHS)
